PubChem BioAssay AID1259308 | NCATS – 2017
In all, the deposit lists about 59,000 reagents; below is a random part of them. About 1,510 of all reagents (2.6%) count as active. 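Calls use total luciferase alone and ignore viability, so some active siRNAs may act by altering cell number.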 The numbers tell different reagents against one gene apart.

Test: 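Candidate targets for better recombinant protein yield in mammalian cells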 (primary screen)
Cells: human HEK293 embryonic kidney cells stably expressing firefly luciferase (HEK-CMV-Luc2-Hygro)
Reagent: single siRNA against human genes, 0.8 pmol siRNA per well
Time to read-out: 72 h
Measured: 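Reporter luminescence and viable-cell signal on separate replicate plates, given as percent of non-targeting control and median/MAD z-scores, plus per-cell luciferase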
Reading the numbers: total luciferase, z-score and total luciferase, % of control: higher = more reporter protein produced; luciferase per cell, z-score: higher = more reporter output per viable cell; viable cells, % of control: higher = more viable cells
Call rule: 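An siRNA counts as active if its total luciferase robust z-score exceeds 3; genes with two or more such siRNAs out of three were retested with fresh siRNAs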
Calls: active = raised luciferase; inactive = no rise

gene symbol | reagent | total luciferase, z-score | total luciferase, % of control | luciferase per cell, z-score | viable cells, % of control | Outcome
DUSP11 (GeneID 8446) | 1 | 0.638 | 94.6 | 0.105 | 103 | inactive
DUSP11 (GeneID 8446) | 2 | 0.371 | 89.3 | -0.315 | 108 | inactive
DUSP11 (GeneID 8446) | 3 | -0.195 | 78 | -0.732 | 106 | inactive
FRMD6-AS1 (GeneID 145438) | 1 | 0.518 | 92.2 | 0.788 | 83.7 | inactive
FRMD6-AS1 (GeneID 145438) | 2 | -0.553 | 70.9 | -0.604 | 92.9 | inactive
FRMD6-AS1 (GeneID 145438) | 3 | 0.52 | 92.2 | 0.434 | 91.9 | inactive
SIAH1 (GeneID 6477) | 1 | -1.01 | 61.8 | -1.25 | 96 | inactive
SIAH1 (GeneID 6477) | 2 | -0.602 | 69.9 | -0.585 | 91.1 | inactive
SIAH1 (GeneID 6477) | 3 | -0.963 | 62.7 | -1.57 | 106 | inactive
HLA-DOA (GeneID 3111) | 1 | -0.241 | 77.1 | -0.715 | 104 | inactive
HLA-DOA (GeneID 3111) | 2 | -0.304 | 75.8 | -0.76 | 104 | inactive
HLA-DOA (GeneID 3111) | 3 | 0.266 | 87.2 | -0.0479 | 98.7 | inactive
ACOD1 (GeneID 730249) | 1 | -2.72 | 27.7 | -2.55 | 60.5 | inactive
ACOD1 (GeneID 730249) | 2 | -0.357 | 74.8 | -0.815 | 104 | inactive
ACOD1 (GeneID 730249) | 3 | 1.12 | 104 | 0.662 | 97.8 | inactive
NUSAP1 (GeneID 51203) | 1 | -1.28 | 56.4 | -0.869 | 79.2 | inactive
NUSAP1 (GeneID 51203) | 2 | 0.654 | 94.9 | 0.742 | 87.2 | inactive
NUSAP1 (GeneID 51203) | 3 | -0.968 | 62.6 | -1.36 | 100 | inactive
H2AC8 (GeneID 3012) | 1 | -0.232 | 77.3 | -0.261 | 92.5 | inactive
H2AC8 (GeneID 3012) | 2 | -0.135 | 79.2 | 0.0684 | 86.9 | inactive
H2AC8 (GeneID 3012) | 3 | 0.896 | 99.7 | 0.134 | 108 | inactive
ARFGEF3 (GeneID 57221) | 1 | 0.338 | 88.6 | -0.528 | 114 | inactive
ARFGEF3 (GeneID 57221) | 2 | 1.31 | 108 | 1.38 | 83.7 | inactive
ARFGEF3 (GeneID 57221) | 3 | -0.643 | 69.1 | -1.43 | 113 | inactive

An excerpt from above, showing only “total luciferase, % of control”.
SIAH1 (GeneID 6477) #2: 69.9
SIAH1 (GeneID 6477) #3: 62.7
